Some of the results follow.

Compound in the experiment: CC1Cc2ccccc2N1C(=O)C1CCCN(C1)C(=O)CCl (mixture of isomers) [TRIM25 ligand 11 (diastereomer mixture)]
As to the kind of experiment: probe-labelled cysteine peptide fold change vs DMSO (competition) (log2 fold change); higher = less target engagement (more negative = stronger competition). The note with it: THP-1, incubation time: 4 h.
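Note: competitive chemoproteomic profiling in live THP-1 cells with an iodoacetamide desthiobiotin (IA-DTB) probe, comparing probe-labelled peptide intensities in compound-treated cells against DMSO-treated controls.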

Consider “RBBP5_Q15291_73_IISAHIHPVCSLCWSR (UniProt Q15291)”, for which the “probe-labelled cysteine peptide fold change” value (10 µM) was -0.0205 and the “probe-labelled cysteine peptide fold change” value (50 µM) was determined as 0.278.

Turning to “RBM15_Q96T37_926_ENTGVLHAFPPCEFSQQFLDSPAK (UniProt Q96T37)”, the “probe-labelled cysteine peptide fold change” value by setting is: (10 µM) -0.0929; (50 µM) -0.142.

Consider “RAE1_P78406_143_APNYSCVMTGSWDK (UniProt P78406)”, for which the “probe-labelled cysteine peptide fold change” value was determined as 0.081 (10 µM) and 0.0104 (50 µM).

For RAE1_P78406_217_CVAIFK (UniProt P78406), the “probe-labelled cysteine peptide fold change” value runs as follows: (10 µM) -0.0991; (50 µM) -0.0606.

Take “RANBP10_Q6VN20_100_ATHPIPAACGIYYFEVK (UniProt Q6VN20)”: the “probe-labelled cysteine peptide fold change” value reads like this: (10 µM) 0.0789; (50 µM) 0.217.

In the case of “RCHY1_Q96PM5_183+186_CPLCMHSALDMTR (UniProt Q96PM5)”, the “probe-labelled cysteine peptide fold change” value is -0.0447 (10 µM) and 0.0148 (50 µM).

On to “RBM22_Q9NW64_27_QNWEDADFPILCQTCLGENPYIR (UniProt Q9NW64)”, for which the “probe-labelled cysteine peptide fold change” value worked out at 0.273 (10 µM) and 0.0434 (50 µM).

“RBM26_Q5T8P6_53_ALCIDQLDVFLQK (UniProt Q5T8P6)”: the “probe-labelled cysteine peptide fold change” value reads like this: (10 µM) 0.0876; (50 µM) -0.00108.

In the case of “RBM4_Q9BWF3_89_LHVGNISPTCTNK (UniProt Q9BWF3)”, the “probe-labelled cysteine peptide fold change” value runs as follows: (10 µM) 0.0226; (50 µM) -0.0495.

Turning to “RBM12B_Q8IXT5_837_CPSDEDFR (UniProt Q8IXT5)”, the “probe-labelled cysteine peptide fold change” value is, setting by setting: (10 µM) 0.191; (50 µM) 0.083.

Take “RBM14_Q96PK6_90_IFVGNVSAACTSQELR (UniProt Q96PK6)”: the “probe-labelled cysteine peptide fold change” value is 0.0687 (10 µM) and -0.0383 (50 µM).

As for “RANBP9_Q96S59_678_EPVCSALNSAILETHNLPK (UniProt Q96S59)”, the “probe-labelled cysteine peptide fold change” value reads like this: (10 µM) 0.0853; (50 µM) 0.0342.

For the target “RBBP4_Q09028_167_HPSKPDPSGECNPDLR (UniProt Q09028)”, the “probe-labelled cysteine peptide fold change” value (10 µM) was found to be 0.111 and the “probe-labelled cysteine peptide fold change” value (50 µM) was -0.157.

For the target “RARS2_Q5T160_74_CDTVVSEISTGQR (UniProt Q5T160)”, the “probe-labelled cysteine peptide fold change” value by setting is: (10 µM) 0.227; (50 µM) -0.0404.

In the case of “RBL1_P28749_1047_VCQENDDVLLK (UniProt P28749)”, the “probe-labelled cysteine peptide fold change” value runs as follows: (10 µM) 0.0885; (50 µM) -0.114.

Regarding “RBBP7_Q16576_202_EGYGLSWNSNLSGHLLSASDDHTVCLWDINAGPK (UniProt Q16576)”, the “probe-labelled cysteine peptide fold change” value reads like this: (10 µM) 0.0782; (50 µM) -0.152.

In the case of “RCHY1_Q96PM5_87_IQHAQQTCEECSTLFGEYYCDICHLFDK (UniProt Q96PM5)”, the “probe-labelled cysteine peptide fold change” value reads like this: (10 µM) -0.177; (50 µM) -0.00982.

“RCHY1_Q96PM5_90_IQHAQQTCEECSTLFGEYYCDICHLFDK (UniProt Q96PM5)”: the “probe-labelled cysteine peptide fold change” value (10 µM) was 0.0425 and the “probe-labelled cysteine peptide fold change” value (50 µM) came out at 0.109.

Take “RASSF4_Q9H2L5_236_DCEYPLISR (UniProt Q9H2L5)”: the “probe-labelled cysteine peptide fold change” value is -0.103 (10 µM) and 0.0181 (50 µM).

As for “RBM34_P42696_196_TVFVGNLPVTCNK (UniProt P42696)”, the “probe-labelled cysteine peptide fold change” value is -0.0442 (10 µM) and -0.11 (50 µM).

As for “RBMXL1_Q96E39_338_SDLYSSCDR (UniProt Q96E39)”, the “probe-labelled cysteine peptide fold change” value by setting is: (10 µM) 0.124; (50 µM) -0.216.

With “RANBP2_P49792_1552_EGQWDCSSCLVR (UniProt P49792)”, the “probe-labelled cysteine peptide fold change” value runs as follows: (10 µM) -0.0598; (50 µM) 0.00525.

Take “RAI1_Q7Z5J4_790_GDTHEASACLGFQEEDPPGEK (UniProt Q7Z5J4)”: the “probe-labelled cysteine peptide fold change” value (10 µM) was -0.145 and the “probe-labelled cysteine peptide fold change” value (50 µM) was -0.333.

For “RBM19_Q9Y4C8_77_ITVEFCK (UniProt Q9Y4C8)”, the “probe-labelled cysteine peptide fold change” value is -0.0669 (10 µM) and -0.0167 (50 µM).

As for “RANBP2_P49792_1243_ICANHYISPDMK (UniProt P49792)”, the “probe-labelled cysteine peptide fold change” value runs as follows: (10 µM) 0.0377; (50 µM) -0.0178.

As for “RANBP3_Q9H6Z4_406_VEVITGEEAESNVLQMQCK (UniProt Q9H6Z4)”, the “probe-labelled cysteine peptide fold change” value (10 µM) amounted to 0.0311 and the “probe-labelled cysteine peptide fold change” value (50 µM) was 0.26.

As to “RBPJ_Q06330_397_CGESMLCVVPDISAFR (UniProt Q06330)”, the “probe-labelled cysteine peptide fold change” value runs as follows: (10 µM) 0.165; (50 µM) 0.021.

With “RCCD1_A6NED2_42_AGVDICR (UniProt A6NED2)”, the “probe-labelled cysteine peptide fold change” value stood at 0.0261 (10 µM) and 0.193 (50 µM).

Take “RANBP2_P49792_3122_VIPDFVCQGGDITK (UniProt P49792)”: the “probe-labelled cysteine peptide fold change” value stood at 0.0475 (10 µM) and 0.0122 (50 µM).

For “RASAL2_Q9UJF2_333_NKEELACALVHILQSTGR (UniProt Q9UJF2)”, the “probe-labelled cysteine peptide fold change” value reads like this: (10 µM) 0.0398; (50 µM) 0.0203.

For “RALBP1_Q15311_411_RQEFLLNCLHR (UniProt Q15311)”, the “probe-labelled cysteine peptide fold change” value by setting is: (10 µM) -0.116; (50 µM) -0.0212.

As to “RBKS_Q9H477_73_LGAMTSMVCK (UniProt Q9H477)”, the “probe-labelled cysteine peptide fold change” value was -0.178 (10 µM) and -0.156 (50 µM).

For “RC3H1_Q5TC82_33_KPISLGCGHTVCK (UniProt Q5TC82)”, the “probe-labelled cysteine peptide fold change” value (10 µM) was 0.0877 and the “probe-labelled cysteine peptide fold change” value (50 µM) was -0.0205.

As to “RCC1L_Q96I51_181_VLQVSCGR (UniProt Q96I51)”, the “probe-labelled cysteine peptide fold change” value was 0.303 (10 µM) and 0.352 (50 µM).

In the case of “RANGAP1_P46060_169_ILAAALTECHR (UniProt P46060)”, the “probe-labelled cysteine peptide fold change” value (10 µM) was -0.0272 and the “probe-labelled cysteine peptide fold change” value (50 µM) is -0.0338.

Regarding RBPJ_Q06330_286_CAFYLK (UniProt Q06330), the “probe-labelled cysteine peptide fold change” value is -0.0671 (10 µM) and 0.115 (50 µM).

On to “RBBP7_Q16576_97_VHIPNDDAQFDASHCDSDK (UniProt Q16576)”, for which the “probe-labelled cysteine peptide fold change” value runs as follows: (10 µM) 0.0768; (50 µM) 0.0312.

As to “RCAN3_Q9UKA8_173_QSEDAMPVINYDLLCAVSK (UniProt Q9UKA8)”, the “probe-labelled cysteine peptide fold change” value was -0.26 (10 µM) and 0.0714 (50 µM).

Consider “RBX1_P62877_94_QVCPLDNREWEFQK (UniProt P62877)”, for which the “probe-labelled cysteine peptide fold change” value runs as follows: (10 µM) -0.367; (50 µM) -0.31.

Regarding “RASAL3_Q86YV0_447_LCGALEPALPAQAK (UniProt Q86YV0)”, the “probe-labelled cysteine peptide fold change” value runs as follows: (10 µM) 0.119; (50 µM) 0.0549.

For “RASSF2_P50749_12_MDYSHQTSLVPCGQDK (UniProt P50749)”, the “probe-labelled cysteine peptide fold change” value was 0.155 (10 µM) and -0.142 (50 µM).

“RBM12B_Q8IXT5_204_FASCVDASGGLK (UniProt Q8IXT5)”: the “probe-labelled cysteine peptide fold change” value was 0.00934 (10 µM) and -0.051 (50 µM).

The record behind these values is the supplement of paper PMC12067093, “Discovery and optimisation of a covalent ligand for TRIM25 and its application to targeted protein ubiquitination” (Chemical Science, 2025).
